Values quoted from earlier work as cited in patent US8765060B2, “Chemical sensor” (Regents of the University of Minnesota, priority 2005, dated 2014).

Conditions: physiological concentrations; creatininium ion exchanger ISE; cited from earlier work

Compound: CC1=C(CCC(=O)O)c2cc3nc(cc4[nH]c(cc5[nH]c(cc1n2)c(C)c5CCC(=O)O)c(CCC(=O)O)c4C)C(CCC(=O)O)=C3C [coproporphyrin]
- emf response / drift caused by the compound: positive emf drifts

Compound: CC(C)CCC[C@@H](C)[C@H]1CC[C@H]2[C@@H]3CC=C4C[C@@H](O)CC[C@]4(C)[C@H]3CC[C@]12C [cholesterol]
- emf response / drift caused by the compound: no significant emf responses

Compound: CCCCCCCC(=O)O [octanoic acid]
- emf response / drift caused by the compound: positive emf drifts

Compound: phosphatidylethanolamine
- emf response / drift caused by the compound: positive emf drifts

Compound: C[C@H](CCC(=O)NCCS(=O)(=O)O)[C@H]1CC[C@H]2[C@@H]3[C@H](O)C[C@@H]4C[C@H](O)CC[C@]4(C)[C@H]3C[C@H](O)[C@]12C [taurocholic acid]
- emf response / drift caused by the compound: positive emf drifts

Compound: phosphatidylserine
- emf response / drift caused by the compound: positive emf drifts
